Reference: article PMC4467191
Results are given in words; binding and its absence hold for the method and conditions named. Some entries that bind do so weakly or less than the wild type. Blank lines part the entries; values can stand above or below the binder they belong to.

Assays:
Test in all cases: native gel or EMSA; Blue Native PAGE (supplementary Fig. S2F); oligomer bands marked by open arrowheads, higher-order oligomers or aggregates by solid arrowheads; sample and conditions not told in the text shown
[1] = biological target: human Pex11pα (human) (UniProt O75192)
[2] = biological target: human Pex11pγ (human) (UniProt Q96HA9)
[3] = biological target: human Pex11pβ (wild type) (human) (UniProt O96011)
[4] = biological target: human Pex11pβ-φ (L58E, L61E, A65E) (human) (UniProt O96011)
[5] = biological target: human Pex11pβ-P (L59P, D66P) (human) (UniProt O96011)

B1: human Pex11pα (protein, UniProt O75192 1-247)
chain: MDAFTRFTNQTQGRDRLFRATQYTCMLLRYLLEPKAGKEKVVMKLKKLESSVSTGRKWFRLGNVVHAIQATEQSIHATDLVPRLCLTLANLNRVIYFICDTILWVRSVGLTSGINKEKWRTRAAHHYYYSLLLSLVRDLYEISLQMKRVTCDRAKKEKSASQDPLWFSVAEEETEWLQSFLLLLFRSLKQHPPLLLDTVKNLCDILNPLDQLGIYKSNPGIIGLGGLVSSIAGMITVAYPQMKLKTR
binding [1]: binds

B3: human Pex11pβ (wild type) (protein, UniProt O96011 1-259)
chain: MDAWVRFSAQSQARERLCRAAQYACSLLGHALQRHGASPELQKQIRQLESHLSLGRKLLRLGNSADALESAKRAVHLSDVVLRFCITVSHLNRALYFACDNVLWAGKSGLAPRVDQEKWAQRSFRYYLFSLIMNLSRDAYEIRLLMEQESSACSRRLKGSGGGVPGGSETGGLGGPGTPGGGLPQLALKLRLQVLLLARVLRGHPPLLLDVVRNACDLFIPLDKLGLWRCGPGIVGLCGLVSSILSILTLIYPWLRLKP
binding [3]: binds

B5: human Pex11pβ-P (L59P, D66P) (protein, UniProt O96011 1-259)
chain: MDAWVRFSAQSQARERLCRAAQYACSLLGHALQRHGASPELQKQIRQLESHLSLGRKLPRLGNSAPALESAKRAVHLSDVVLRFCITVSHLNRALYFACDNVLWAGKSGLAPRVDQEKWAQRSFRYYLFSLIMNLSRDAYEIRLLMEQESSACSRRLKGSGGGVPGGSETGGLGGPGTPGGGLPQLALKLRLQVLLLARVLRGHPPLLLDVVRNACDLFIPLDKLGLWRCGPGIVGLCGLVSSILSILTLIYPWLRLKP
binding [5]: binds

Now from value to binder:

binding [2]: binds
B2: human Pex11pγ (protein, UniProt Q96HA9 1-241)
chain: MASLSGLASALESYRGRDRLIRVLGYCCQLVGGVLVEQCPARSEVGTRLLVVSTQLSHCRTILRLFDDLAMFVYTKQYGLGAQEEDAFVRCVSVLGNLADQLYYPCEHVAWAADARVLHVDSSRWWTLSTTLWALSLLLGVARSLWMLLKLRQRLRSPTAPFTSPLPRGKRRAMEAQMQSEALSLLSNLADLANAVHWLPRGVLWAGRFPPWLVGLMGTISSILSMYQAARAGGQAEATTP

binding [4]: binds
B4: human Pex11pβ-φ (L58E, L61E, A65E) (protein, UniProt O96011 1-259)
chain: MDAWVRFSAQSQARERLCRAAQYACSLLGHALQRHGASPELQKQIRQLESHLSLGRKELREGNSEDALESAKRAVHLSDVVLRFCITVSHLNRALYFACDNVLWAGKSGLAPRVDQEKWAQRSFRYYLFSLIMNLSRDAYEIRLLMEQESSACSRRLKGSGGGVPGGSETGGLGGPGTPGGGLPQLALKLRLQVLLLARVLRGHPPLLLDVVRNACDLFIPLDKLGLWRCGPGIVGLCGLVSSILSILTLIYPWLRLKP
